# Laboratory results as given in the supplement of paper PMC10663445.
# Counter-ions that a name gives are not always drawn. This is one part of the list. Single values are uncertain, as repeats are few or missing.
# Test system: hsa-miR-132-3p
# Experiment: miR-132-3p level in NGN2-iNs after compound treatment (TMM-normalised, ComBat batch-corrected) (batch-corrected normalised expression (arbitrary units)); higher = higher miR-132-3p expression
# Conditions: 10 µM; 24 h; human iPSC-derived NGN2 neurons (BR43)
row,SMILES,miR-132-3p level in NGN2-iNs
1,c1coc(CNc2ncnc3[nH]cnc23)c1 [Kinetin],0.454
2,C[C@]12CCC3=C4CCC(=O)C=C4CC[C@H]3[C@@H]1CC[C@@]2(O)CC#N [Dienogest],0.554
3,COc1cc2ncnc(Nc3cccc(Cl)c3)c2cc1OC [AG-1478 (Tyrphostin AG-1478)],1.01
4,O=c1oc2cc(O)ccc2s1 [Tioxolone],0.0871
5,CN/C(=N\CCSCc1nc[nH]c1C)NC#N [Cimetidine],1.91
6,O=C(O)c1cc(/N=N/c2ccc(S(=O)(=O)Nc3ccccn3)cc2)ccc1O [Sulfasalazine],-0.0564
7,C=C1c2cccc(O)c2C(O)=C2C(=O)[C@]3(O)C(O)=C(C(N)=O)C(=O)[C@@H](N(C)C)[C@@H]3[C@@H](O)[C@H]12 [Methacycline HCl],1.68
8,NC(=O)c1ccc(I)c([N+](=O)[O-])c1 [Iniparib (BSI-201)],0.167
9,COC(=O)Nc1ccc(-c2nc(N3CCOCC3)c3cnn(C4CCN(C(=O)OC)CC4)c3n2)cc1,0.306
10,CNC[C@H](O)[C@@H](O)[C@H](O)[C@H](O)CO [Meglumine],0.693
11,COC(=O)N[C@H](C(=O)N[C@@H](Cc1ccccc1)[C@@H](O)CN(Cc1ccc(-c2ccccn2)cc1)NC(=O)[C@@H](NC(=O)OC)C(C)(C)C)C(C)(C)C [Atazanavir Sulfate],0.0906
12,CCC[S+]([O-])c1ccc2[nH]c(NC(=O)OC)nc2c1 (stereo unspecified) [Albendazole Oxide],-0.177
13,Cc1ccnc(NS(=O)(=O)c2ccc(N)cc2)n1 [Sulfamerazine],-0.36
14,COc1ccc(C[C@H](N)C(=O)N[C@H]2[C@@H](O)[C@H](n3cnc4c(N(C)C)ncnc43)O[C@@H]2CO)cc1 [Puromycin 2HCl],1.83
15,O=c1ccn([C@@H]2O[C@H](CO)[C@@H](O)[C@H]2O)c(=O)[nH]1 [Uridine],0.0609
16,CC(C)n1c(/C=C/C(O)CC(O)CC(=O)O)c(-c2ccc(F)cc2)c2ccccc21 (stereo unspecified) [Fluvastatin Sodium],-2.02
17,CCCCNc1cc(C(=O)O)cc(S(N)(=O)=O)c1Oc1ccccc1 [Bumetanide],-0.395
18,CCN(CC)CCOC(=O)c1ccc(N)cc1 [Procaine HCl],0.213
19,O=C1CCC[C@@H]2[C@H]3CCC[N+]4([O-])CCC[C@@H](CN12)[C@@H]34 (stereo partly specified) [Oxymatrine],0.117
20,COc1cccc2cc(-c3nc([C@H]4CC[C@H](C(=O)O)CC4)n4ncnc(N)c34)[nH]c12,0.132
21,O=C(O)Cc1cccc(OCCCN(Cc2cccc(C(F)(F)F)c2Cl)CC(c2ccccc2)c2ccccc2)c1,-0.92
22,CC(=O)N[C@@H](CS)C(=O)O [Acetylcysteine],0.699
23,COc1cc(C2Oc3cc([C@H]4Oc5cc(O)cc(O)c5C(=O)[C@@H]4O)ccc3OC2CO)ccc1O (stereo partly specified) [Silymarin],-1.48

row,SMILES,miR-132-3p level in NGN2-iNs
1,COc1cc(C2Oc3cc([C@H]4Oc5cc(O)cc(O)c5C(=O)[C@@H]4O)ccc3OC2CO)ccc1O (stereo partly specified) [Silibinin],-0.0665
2,O=c1cc(-c2ccccc2)oc2cc(O)c(O)c(O)c12 [Baicalein],0.771
3,CN(C)Cc1cccc(N=C(c2ccccc2)c2c(O)[nH]c3cc(C(=O)N(C)C)ccc23)c1,0.988
4,CC[C@H]1OC(=O)C[C@@H](O)[C@H](C)[C@@H](O[C@@H]2O[C@H](C)[C@@H](O)[C@H](N(C)C)[C@H]2O)[C@@H](CCN2C[C@H](C)C[C@H](C)C2)C[C@@H](C)C(=O)/C=C/C(C)=C/[C@@H]1CO[C@@H]1O[C@H](C)[C@@H](O)[C@@H](OC)[C@H]1OC [Tilmicosin],-0.805
5,CNCCCC12CCC(c3ccccc31)c1ccccc12 [Maprotiline HCl],0.545
6,CCc1c(O)cc(O)c(C(=O)c2ccc(OCCN3CCOCC3)c(OC)c2)c1CC(=O)N(CCOC)CCOC,0.914
7,Cc1coc2c1C(=O)C(=O)c1c-2ccc2c1CCCC2(C)C [Tanshinone IIA],0.372
8,COc1ccc2c(c1)c(CC(=O)N1CCOCC1)c(C)n2C(=O)c1ccc(Cl)cc1,2.17
9,C[C@@H]1O[C@@H](OC[C@H]2O[C@@H](Oc3c(-c4ccc(OCCO)c(OCCO)c4)oc4cc(OCCO)cc(O)c4c3=O)[C@H](O)[C@@H](O)[C@@H]2O)[C@H](O)[C@H](O)[C@H]1O [Troxerutin],-0.16
10,CCN(CC)C(=O)/C(C#N)=C/c1cc(O)c(O)c([N+](=O)[O-])c1 [Entacapone],0.0389
11,C[C@]12C=CC(=O)C=C1CC[C@H]1[C@@H]3C[C@@H](O)[C@](O)(C(=O)CO)[C@@]3(C)C[C@H](O)[C@@]12F [Triamcinolone],1.64
12,CC1(C)O[C@@H]2C[C@H]3[C@@H]4CCC5=CC(=O)CC[C@]5(C)[C@@]4(F)[C@@H](O)C[C@]3(C)[C@]2(C(=O)CCl)O1 [Halcinonide],-0.125
13,C[C@@H](O)[C@H]1C(=O)N2C(C(=O)O)=C(S[C@@H]3CN[C@H](C(=O)N(C)C)C3)[C@H](C)[C@H]12 [Meropenem],-0.155
14,O=c1c(-c2ccc(O)cc2)coc2cc(O)ccc12 [Daidzein],-0.273
15,CC1(C)CC[C@]2(C(=O)O)CC[C@]3(C)C(=CC[C@@H]4[C@@]5(C)CC[C@H](O)C(C)(C)[C@@H]5CC[C@]43C)[C@@H]2C1 [Oleanolic Acid],-0.487
16,O=C(O)CCCCC(CCSCc1ccccc1)SCc1ccccc1 (stereo unspecified),-0.743
17,C[C@H]1O[C@@H](n2cc(F)c(=O)[nH]c2=O)[C@H](O)[C@@H]1O [Doxifluridine],-0.763
18,CC(C)(C)c1nc(-c2cccc(NS(=O)(=O)c3c(F)cccc3F)c2F)c(-c2ccnc(N)n2)s1,2.22
19,Cc1c(C(=O)Nc2ccc(N3CCC(N4CCOCC4)CC3)c(C#N)c2)cnn1-c1ccc(Cl)cc1,0.672
20,Nc1c(CC(=O)O)cccc1C(=O)c1ccc(Br)cc1 [Bromfenac Sodium],-0.984
21,COc1cccc(Nc2c(C(N)=O)cnc3c(C)cc(S(=O)(=O)c4cccc(C(=O)N(C)C)c4)cc23)c1,0.314
22,C/C(=C\C(=O)Nc1ccccc1C(=O)O)c1ccc2ccccc2c1,-0.253
23,Cc1cc(Cl)ccc1OCCCC(=O)NO [Droxinostat],-2.72

# A section from the list above, as a working copy:
row,SMILES,miR-132-3p level in NGN2-iNs
5,CNCCCC12CCC(c3ccccc31)c1ccccc12 [Maprotiline HCl],0.545
6,CCc1c(O)cc(O)c(C(=O)c2ccc(OCCN3CCOCC3)c(OC)c2)c1CC(=O)N(CCOC)CCOC,0.914
7,Cc1coc2c1C(=O)C(=O)c1c-2ccc2c1CCCC2(C)C [Tanshinone IIA],0.372
